# Results from paper doi:10.1101/2023.07.25.550456.
# Sequences of proteins named here, by UniProt entry; tags and fusion partners are left off.
# UniProt Q13148: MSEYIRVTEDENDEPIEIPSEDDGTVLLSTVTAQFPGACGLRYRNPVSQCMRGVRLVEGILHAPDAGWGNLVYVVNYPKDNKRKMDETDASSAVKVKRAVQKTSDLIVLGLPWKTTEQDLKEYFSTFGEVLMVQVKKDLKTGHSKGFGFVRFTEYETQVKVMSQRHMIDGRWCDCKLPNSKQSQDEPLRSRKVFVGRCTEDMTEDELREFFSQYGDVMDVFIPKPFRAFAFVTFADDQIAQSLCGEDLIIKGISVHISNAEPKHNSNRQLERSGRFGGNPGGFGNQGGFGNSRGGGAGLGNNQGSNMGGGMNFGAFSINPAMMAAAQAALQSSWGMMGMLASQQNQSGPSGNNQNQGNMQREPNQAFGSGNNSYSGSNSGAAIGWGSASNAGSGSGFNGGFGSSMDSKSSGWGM
# UniProt P35637: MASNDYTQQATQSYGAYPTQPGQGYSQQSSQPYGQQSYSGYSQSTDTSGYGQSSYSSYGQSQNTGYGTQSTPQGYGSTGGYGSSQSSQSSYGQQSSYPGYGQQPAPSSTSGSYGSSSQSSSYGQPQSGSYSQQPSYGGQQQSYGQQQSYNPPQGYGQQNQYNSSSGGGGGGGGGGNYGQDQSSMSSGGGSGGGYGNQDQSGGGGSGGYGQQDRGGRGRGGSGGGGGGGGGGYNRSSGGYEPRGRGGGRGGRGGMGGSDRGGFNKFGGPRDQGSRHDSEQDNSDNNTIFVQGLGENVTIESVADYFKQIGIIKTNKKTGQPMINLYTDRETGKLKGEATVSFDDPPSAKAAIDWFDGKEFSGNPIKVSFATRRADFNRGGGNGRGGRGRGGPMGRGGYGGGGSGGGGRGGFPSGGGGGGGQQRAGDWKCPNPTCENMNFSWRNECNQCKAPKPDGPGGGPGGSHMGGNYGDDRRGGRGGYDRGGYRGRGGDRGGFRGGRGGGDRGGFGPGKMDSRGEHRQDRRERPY
# UniProt Q15717: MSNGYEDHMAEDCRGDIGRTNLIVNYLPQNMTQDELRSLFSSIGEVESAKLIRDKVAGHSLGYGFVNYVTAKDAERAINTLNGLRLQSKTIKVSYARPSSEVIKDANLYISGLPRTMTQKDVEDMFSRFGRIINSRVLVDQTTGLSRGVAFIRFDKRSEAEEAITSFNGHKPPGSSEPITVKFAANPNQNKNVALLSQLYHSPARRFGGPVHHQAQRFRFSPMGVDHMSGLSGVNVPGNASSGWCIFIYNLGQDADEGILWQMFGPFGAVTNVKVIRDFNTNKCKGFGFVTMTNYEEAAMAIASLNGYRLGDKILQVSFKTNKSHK
# No constants are given. Whether binding was seen depends on the method and setting. Some entries that bind do so weakly or less than the wild type.
# Columns and labels:
# [1] = molecular target: TDP-43 fused to RFP and the microtubule-binding domain of Tau (TDP-RFP-MBD) (UniProt Q13148); test: microtubule bench assay
# [2] = molecular target: FUS fused to RFP and the microtubule-binding domain of Tau (FUS-RFP-MBD) (UniProt P35637); test: microtubule bench assay
substance,measurement,setting,value
HuR-GFP (from UniProt Q15717 1-326),binding,[1],binds
FUS fused to GFP (prey) (from UniProt P35637 1-526),binding,[1],binds
TDP-43 fused to GFP (prey) (from UniProt Q13148 1-414),binding,[2],binds
